Some entries share one result that the patent states for a list of compounds.
Experiments:
Assay type in all cases: in vivo
[1] = test system: Diamond Back Moth (Plutella xylostella); experiment: Diamond back moth, cabbage leaf dip test; settings: 300 ppm; 3rd instar larvae on dipped cabbage leaves; 72 hours after treatment; in comparison with untreated controls
[2] = test system: Green Peach Aphid (Myzus persicae); experiment: Green peach aphid, systemic test on artificial diet in microtiter plates; settings: 2500 ppm; adult aphids on treated artificial diet; 3 days; in comparison with untreated controls
Summary of the method: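 Adult aphids (5-8 per well) fed through a membrane on artificial diet containing compound formulated in 75% water/25% DMSO, with two replications per concentration. Incubation lasted 3 days at about 23±1° C and 50±5% relative humidity. Mortality and fecundity were then assessed visually.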

[3] = test system: Vetch Aphid (Megoura viciae); experiment: Vetch aphid, broad bean leaf disk test; settings: 2500 ppm; adult aphids on sprayed broad bean leaf disks; 5 days; in comparison with untreated controls
Summary of the method: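 Broad bean leaf disks sprayed with compounds in 25% DMSO/water at various concentrations, two replicates, then air-dried and infested with 5-8 adult Megoura viciae (contact/systemic exposure). After 5 days at about 23±1 °C and 50±5% RH, mortality and fecundity scored visually.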

[4] = test system: Tobacco Budworm (Heliothis virescens); experiment: Tobacco budworm, insect diet microtiter plate test; settings: 2500 ppm; eggs on sprayed insect diet; egg and larval mortality after 5 days; in comparison with untreated controls
[5] = test system: Boll Weevil (Anthonomus grandis); experiment: Boll weevil, insect diet microtiter plate test; settings: 2500 ppm; eggs on sprayed insect diet; egg and larval mortality after 5 days; in comparison with untreated controls
Summary of the method: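 Compounds in 75% water/25% DMSO sprayed at several concentrations (5 μl, two replicates) onto insect diet in 96-well microtiter plates holding 5-10 A. grandis eggs. After 5 days at about 25±1° C and 75±5% relative humidity, egg and larval mortality scored visually.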

[6] = test system: Mediterranean Fruitfly (Ceratitis capitata); experiment: Mediterranean fruitfly, insect diet microtiter plate test; settings: 2500 ppm; eggs on sprayed insect diet; egg and larval mortality after 5 days; in comparison with untreated controls
[7] = test system: Orchid Thrips (dichromothrips corbetti); experiment: Orchid thrips, floral-immersion technique; settings: 300 ppm; adult thrips on dipped orchid petals; 72 hours after treatment; in comparison with untreated controls
[8] = test system: Rice Green Leafhopper (Nephotettix virescens); experiment: Rice green leafhopper, sprayed rice seedlings; settings: 300 ppm; adults on sprayed rice seedlings; after 72 hours; in comparison with untreated controls
[9] = test system: Southern Armyworm (Spodoptera eridania); experiment: Southern armyworm, sprayed lima bean plants; settings: 1 ppm; larvae on sprayed lima bean plants; 4 days after treatment; in comparison with untreated controls
Experimental: B.10 Southern Armyworm (Spodoptera eridania)
The active compounds were formulated in cyclohexanone as a 10,000 ppm solution supplied in tubes. The tubes were inserted into an automated electrostatic sprayer equipped with an atomizing nozzle and they served as stock solutions for which lower dilutions were made in 50% acetone:50% water (v/v). A nonionic surfactant (Kinetic®) was included in the solution at a volume of 0.01% (v/v).
Lima bean plants (variety Sieva) were grown 2 plants to a pot and selected for treatment at the 1st true leaf stage. Test solutions were sprayed onto the foliage by an automated electrostatic plant sprayer equipped with an atomizing spray nozzle. The plants were dried in the sprayer fume hood and then removed from the sprayer. Each pot was placed into perforated plastic bags with a zip closure. About 10 to 11 armyworm larvae were placed into the bag and the bags zipped closed. Test plants were maintained in a growth room at about 25° C. and about 20-40% relative humidity for 4 days, avoiding direct exposure to fluorescent light (24 hour photoperiod) to prevent trapping of heat inside the bags. Mortality and reduced feeding were assessed 4 days after treatment, compared to untreated control plants.

[10] = test system: Green Soldier Stink Bug (Nezara viridula); experiment: Green soldier stink bug, sprayed soybean pods in Petri dishes; settings: 300 ppm; late 3rd instar on soybean pods; after 5 days; in comparison with untreated controls
[11] = test system: Neotropical Brown Stink Bug (Euschistus heros); experiment: Neotropical brown stink bug, sprayed soybean pods in cups; settings: 100 ppm; adults on soybean pods; after 5 days; in comparison with untreated controls
Experimental: B.12 Neotropical Brown Stink Bug (Euschistus heros)
(§1) The active compound was dissolved at the desired concentration in a mixture of 1:1 (vol:vol) distilled water: acetone. Surfactant (Kinetic HV) was added at a rate of 0.01% (vol/vol). The test solution was prepared at the day of use.
Soybean pods were placed in microwavable plastic cups and inoculated with ten adult stage E. heros. Using a hand atomizer, approximately 1 ml solution is sprayed into each cup, insects and food present. A water source was provided (cotton wick with water). Each treatment was replicated 2-fold. Assay arenas were kept at about 25° C. Percent mortality was recorded after 5 days.

[12] = test system: Brown Marmorated Stink Bug (Halyomorpha halys); experiment: Brown marmorated stink bug, sprayed peanuts and soybean seeds in cups; settings: 100 ppm; adults on peanuts and soybean seeds; after 5 days; in comparison with untreated controls
Experimental: B.13 Brown Marmorated Stink Bug (Halyomorpha halys)
as §1
Row peanuts and soybean seeds were placed into microwavable plastic cups and inoculated with five adult stage H. halys. Using a hand atomizer, approximately 1 ml solution is sprayed into each cup, insects and food present. A water source was provided (cotton wick with water). Each treatment is replicated 4-fold. Assay arenas are kept at about 25° C. Percent mortality was recorded after 5 days.

Measured: mortality

O=C(NNc1ncccn1)c1ccc(C2=NOC(c3cc(Cl)cc(Cl)c3)(C(F)(F)F)C2)c2c1CCC2 (stereo not drawn) [Compound 1-25]
at least 75%: all assays above
